This is an account of results in article PMC5760104.

Amino acid sequences for entries named in this document (tags omitted).
UniProt Q92585: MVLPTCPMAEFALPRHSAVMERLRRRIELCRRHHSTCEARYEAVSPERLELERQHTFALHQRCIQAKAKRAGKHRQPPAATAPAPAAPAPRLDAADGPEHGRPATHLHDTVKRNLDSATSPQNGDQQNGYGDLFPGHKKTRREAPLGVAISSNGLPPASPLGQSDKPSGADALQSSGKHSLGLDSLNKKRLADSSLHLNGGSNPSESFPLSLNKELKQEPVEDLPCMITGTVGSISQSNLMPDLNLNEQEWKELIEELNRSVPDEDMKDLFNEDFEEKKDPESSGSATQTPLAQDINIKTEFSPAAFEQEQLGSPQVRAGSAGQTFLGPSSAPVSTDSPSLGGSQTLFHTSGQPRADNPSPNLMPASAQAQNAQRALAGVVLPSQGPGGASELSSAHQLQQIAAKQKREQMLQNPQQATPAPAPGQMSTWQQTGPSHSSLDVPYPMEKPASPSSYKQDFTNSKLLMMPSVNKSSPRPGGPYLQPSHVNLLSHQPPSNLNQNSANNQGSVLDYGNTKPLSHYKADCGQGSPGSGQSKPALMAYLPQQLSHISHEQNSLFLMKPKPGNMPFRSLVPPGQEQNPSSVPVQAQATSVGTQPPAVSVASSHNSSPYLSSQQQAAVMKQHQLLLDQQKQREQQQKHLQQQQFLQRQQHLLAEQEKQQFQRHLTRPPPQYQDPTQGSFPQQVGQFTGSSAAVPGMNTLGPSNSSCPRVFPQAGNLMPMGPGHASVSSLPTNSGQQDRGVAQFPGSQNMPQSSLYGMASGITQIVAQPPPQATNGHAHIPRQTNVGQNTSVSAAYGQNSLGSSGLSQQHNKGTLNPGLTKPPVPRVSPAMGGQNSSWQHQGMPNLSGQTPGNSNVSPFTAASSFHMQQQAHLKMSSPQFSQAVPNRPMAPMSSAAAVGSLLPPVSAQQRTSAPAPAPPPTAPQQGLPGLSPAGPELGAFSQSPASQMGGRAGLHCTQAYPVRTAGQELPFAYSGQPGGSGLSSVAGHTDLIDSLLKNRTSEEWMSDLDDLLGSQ
UniProt Q96JK9: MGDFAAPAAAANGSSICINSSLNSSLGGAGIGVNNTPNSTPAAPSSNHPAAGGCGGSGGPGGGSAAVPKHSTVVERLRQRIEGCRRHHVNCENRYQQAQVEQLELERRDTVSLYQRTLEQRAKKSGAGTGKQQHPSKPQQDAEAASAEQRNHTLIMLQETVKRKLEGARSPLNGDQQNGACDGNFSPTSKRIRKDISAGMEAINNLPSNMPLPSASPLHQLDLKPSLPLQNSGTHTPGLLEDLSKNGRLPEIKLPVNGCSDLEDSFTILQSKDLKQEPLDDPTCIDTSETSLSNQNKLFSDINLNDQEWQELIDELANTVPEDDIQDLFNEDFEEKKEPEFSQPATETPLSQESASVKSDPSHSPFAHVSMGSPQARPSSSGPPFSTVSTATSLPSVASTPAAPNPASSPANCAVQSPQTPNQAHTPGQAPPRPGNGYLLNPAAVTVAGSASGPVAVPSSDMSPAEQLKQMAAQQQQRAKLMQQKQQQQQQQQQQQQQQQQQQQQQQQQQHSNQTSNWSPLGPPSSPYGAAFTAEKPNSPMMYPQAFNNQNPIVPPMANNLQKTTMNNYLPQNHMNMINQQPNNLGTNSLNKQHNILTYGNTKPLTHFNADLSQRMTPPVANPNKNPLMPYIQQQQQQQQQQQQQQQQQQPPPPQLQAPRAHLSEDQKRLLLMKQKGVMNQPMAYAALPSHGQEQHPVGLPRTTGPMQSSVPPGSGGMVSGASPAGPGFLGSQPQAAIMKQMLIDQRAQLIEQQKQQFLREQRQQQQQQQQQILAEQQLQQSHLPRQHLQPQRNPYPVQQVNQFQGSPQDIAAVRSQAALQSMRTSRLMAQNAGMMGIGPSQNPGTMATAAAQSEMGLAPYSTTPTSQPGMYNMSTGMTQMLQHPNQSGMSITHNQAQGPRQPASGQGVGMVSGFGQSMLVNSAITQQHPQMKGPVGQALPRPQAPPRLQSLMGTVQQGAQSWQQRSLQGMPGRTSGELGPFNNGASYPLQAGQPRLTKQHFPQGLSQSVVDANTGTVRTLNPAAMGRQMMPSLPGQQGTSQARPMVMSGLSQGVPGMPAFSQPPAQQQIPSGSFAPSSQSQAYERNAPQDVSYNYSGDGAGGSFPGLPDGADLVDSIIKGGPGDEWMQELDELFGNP

Test [1] deals with FLAG-tagged OcPV1 E6 (Oryctolagus cuniculus papillomavirus 1) (UniProt Q9J032). The test can be described thus: co-IP; FLAG-E6 co-expressed in 293T cells with an excess of both HA-E6AP_Ub- and HA-MAML1 (and HA-GFP); lysed 18 hrs later in 0.5X IGEPAL lysis buffer; anti-FLAG M2 beads 1 hr; blots with anti-HA and anti-FLAG.
For test [2], the target named is FLAG-tagged OaPV3 E6 (Ovies aries papillomavirus 3) (UniProt D5FL25). Described as above.
Test [3] concerns the target FLAG-tagged McPV2 E6 (Mastomys coucha papillomavirus 2) (UniProt Q06RH5). Described as above.
Test [4] addresses FLAG-tagged OcPV1 E6 (Oryctolagus cuniculus papillomavirus 1) (UniProt Q9J032). In words: co-IP; 293T cells co-transfected with myc-MAML3, HA-MAML1, HA-MAML2, HA-E6AP_Ub-, HA-GFP and FLAG-E6; FLAG antibody beads.

Results are given in words; binding and its absence hold for the method and conditions named. In cells and extracts the contact can be indirect. For some of these results: Binding can be weak; no strength is given.

As for “HA-tagged MAML1 (from UniProt Q92585 1-1016)”, the binding entry in test [1] is given as “no binding”; in test [2] it was “binds”; in test [3], “binds weakly”.
With myc-MAML3 (from UniProt Q96JK9 1-1138), the binding result in test [4] is recorded as “no binding”.
